Measurements: PubChem BioAssay AID504467 (National Center for Advancing Translational Sciences (NCATS), 2011)
Among all 330,000 compounds or so, about 7,700 (2.3%) were called active. The inconclusive results got no clear call from the source; some entries with a clear call stand among them for comparison. The call rests on the fitted dose curve; in most records, active means well fitted inhibition curve with a large enough effect; inconclusive means small, poorly fitted or top-dose-only effect, or effect the other way; inactive means flat fitted curve, though single readings scatter. Where the call is inconclusive, the potency comes from a doubtful curve fit.

Assay: qHTS screen for small molecules that inhibit ELG1-dependent DNA repair in human embryonic kidney (HEK293T) cells expressing luciferase-tagged ELG1; further: nearly all actives have a fitted effect of over 55% in size
Settings: HEK293T ELG1-luciferase reporter, luminescence, 16 h, DNA damage induced by 5-fluorouridine; activity change, negative = inhibition: at 46.1 µM (top of the series)
Procedure, shortened: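 Overnight (16 hr) co-exposure of 2,000 cells/well to 5-fluorouridine and compound at 37 °C preceded detection. Luciferase was quantified via ONE-Glo luminescence; loss of signal denotes inhibition.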
On the % scale 0 is the no-effect control and ±100 the full control effect; potency means the concentration at half of the fitted maximal effect.

SMILES	Potency	activity change, negative = inhibition
Cc1ccc(S/C(=N\S(=O)(=O)c2ccc(Cl)cc2)c2ccccc2)cc1	inconclusive: 23.1 µM [inhibitor, single point]	
CCN(CC)c1ccc(/C=N/NC(=O)c2ccc3nc[nH]c3c2)c(O)c1	inconclusive: 4.11 µM [inhibitor, single point]	
CCN(C(=O)CN1CCN(C)CC1)c1c(N)n(Cc2ccccc2)c(=O)[nH]c1=O	inconclusive: 11.6 µM [activator, partial curve, poor fit]	
NC(C(=O)O)C(c1ccccc1)C(F)F (centres undefined)	inconclusive: 29.1 µM [activator, single point]	
Nc1nc(N)nc(-c2cccc(Cl)c2Cl)n1	inconclusive: 25.1 µM [activator, single point]	
COC(=O)c1oc2ccccc2c1N	inconclusive: 23.1 µM [activator, partial curve]	
O=C(Cc1ccc([N+](=O)[O-])cc1)N/N=C/c1ccc([N+](=O)[O-])o1	inconclusive: 29.1 µM [inhibitor, single point]	
Cc1ccc(CNS(=O)(=O)c2ccc3c(c2)NC(=O)CS3)cc1		inactive: -7.6%
CCCn1c(SCC(=O)NC2CC2)nnc1-c1cccs1		inactive: 7.44%
O=C(Nc1nc(-c2ccccn2)cs1)c1ccc(Cl)s1	inconclusive: 32.6 µM [inhibitor, single point]	
O=C(/C=C/c1ccccc1[N+](=O)[O-])Nc1cccc(S(=O)(=O)NC2=NCCCCC2)c1	inconclusive: 29.1 µM [inhibitor, single point]	
N#Cc1ccc2ccn(CC(=O)NCc3ccccc3)c2c1	inconclusive: 18.4 µM [inhibitor, single point]	
COc1ccc(N(C(=O)c2cccnc2)S(=O)(=O)c2cc(OC)ccc2OC)cc1		inactive: -1.26%
Fc1ccc(F)c(C2=NNC(=Nc3ccccc3F)SC2)c1	inconclusive: 3.26 µM [activator, partial curve]	
NC(=O)CC(NC(=O)c1ccccc1)c1ccc(NC2CCCCCCC2)c([N+](=O)[O-])c1 (centres undefined)		inactive: -16.8%
CC(C)OC(=O)n1c(=S)oc2ccccc21	inconclusive: 29.1 µM [activator, single point]	
Cc1ccc(NC(=O)C[n+]2ccn(C3=C([O-])c4ccccc4C3=O)c2)cc1		inactive: 3.28%
COCCNCC(=O)Nc1ccc(C)c(S(=O)(=O)N2CCCCC2)c1		inactive: -1.08%
O=C(CSc1nnc(-c2ccc(C(F)(F)F)cn2)o1)Nc1cccc(Cl)c1	inconclusive: 16.4 µM [activator, partial curve]	
O=C(Nc1ccc(Br)cc1)c1ccccc1Br	inconclusive: 7.3 µM [activator, partial curve]	
Nc1ccccc1SCc1ccccc1	inconclusive: 16.4 µM [activator, partial curve]	
Cc1onc(-c2ccccc2)c1C(=O)Nc1nnc(N2CCCCCC2)s1	inconclusive: 16.4 µM [inhibitor, partial curve, poor fit]	
O=C(Nc1nc2ccc(C(=O)N3CCCCC3)cc2s1)C1CCCCC1	inconclusive: 20.6 µM [inhibitor, single point]	
COC1CCN(Cc2c(C(=O)N3CCN(C4CCCCC4)CC3)nc3ccccn23)CC1		inactive: 6.05%
O=C(COC(=O)C1C2CC3OC(=O)C1C3C2)Nc1ccc(Br)cc1 (centres undefined)		inactive: -0.654%

SMILES	Potency	activity change, negative = inhibition
CCOc1ccc2nc(SCC(=O)Nc3ccc4[nH]c(=O)[nH]c4c3)[nH]c2c1		inactive: -3.85%
Cc1ccc(NC(=O)COc2ncnc3sccc23)cc1S(=O)(=O)N(C)C		inactive: -16.4%
O=C(Nc1ccc([N+](=O)[O-])cc1)c1cc(-c2ccccn2)nc2c(Cl)cccc12	inconclusive: 32.6 µM [activator, partial curve, poor fit]	
Cc1cc(C)n2nc(-c3sccc3-n3c(C)ccc3C)cc2n1	inconclusive: 9.2 µM [activator, partial curve]	
CN1CCN(c2ccc(NC(=O)CSc3nnnn3-c3ccccc3F)cc2)CC1	inconclusive: 16.4 µM [activator, partial curve, poor fit]	
O=C(N/N=C/c1ccccc1)C(O)c1ccccc1 (centres undefined)		inactive: -2.27%
C[C@]12C=CC(=O)C=C1CC[C@@H]1[C@@H]2[C@@H](O)C[C@@]2(C)[C@H]1CC[C@]2(O)C(=O)COC(=O)CCC(=O)NCCc1ccc(O)cc1		inactive: 4.71%
CN(CC(=O)Nc1ccc(S(=O)(=O)N2CCCC2)cc1)CC(=O)Nc1cccc(F)c1	inconclusive: 25.9 µM [inhibitor, single point]	
Cc1ccc(Cl)cc1Nc1nc(N2CCOCC2)nc(N2CCOCC2)n1	inconclusive: 20.6 µM [inhibitor, single point]	
COc1ccc(Oc2nc(-c3ccccn3)ncc2OC)cc1		inactive: -28.2%
CCOC(=O)C1(Cc2cccc(F)c2)CCN(C2CCOCC2)CC1		inactive: 12.2%
CCCc1cc(NCCCCO)n2c(nc3ccccc32)c1C#N	inconclusive: 29.1 µM [inhibitor, single point]	
O=C(Nc1ccccc1)N1CCCN(c2nccc(C(F)(F)F)n2)CC1		inactive: 9.55%
CCc1ccc(C(=O)COC(=O)CCc2nc3ccccc3c(=O)[nH]2)cc1		inactive: 5.29%
COc1ccc2cc(C(=O)NCCCN3CCCC3=O)[nH]c2c1	inconclusive: 16.4 µM [activator, single point]	
Cc1ccc(N(C(=O)CCl)C(C(=O)NC2CCCCC2)c2cccnc2)cc1C (centres undefined)	active: 9.2 µM	
COc1ccc(C2CC(c3c(O)cc(C)oc3=O)=NCCS2)c(OC)c1 (centres undefined)	inconclusive: 13 µM [activator, partial curve]	
Cn1nnc(NC(=S)NC(=O)c2ccccc2)n1	inconclusive: 10.3 µM [activator, single point]	
O=C(c1cc(-c2ccc(F)cc2)no1)N1CCN(Cc2ccc3c(c2)OCO3)CC1		inactive: -14.7%
O=C(NC1=NC2CCCCC2N1)c1ccccc1 (centres undefined)	inconclusive: 1.64 µM [activator, partial curve]	
CCN(CC)S(=O)(=O)c1ccc2oc(C(=O)NC3CC3)c(C)c2c1	inconclusive: 0.517 µM [inhibitor, partial curve, poor fit]	
O=C(NCc1ccco1)C(c1cccs1)N(Cc1ccccc1)C(=O)Cn1nnc2ccccc21 (centres undefined)		inactive: -5.72%
CN(C)S(=O)(=O)c1cc(C(=O)NCCCn2ccc3ccccc32)ccc1Cl	inconclusive: 29.1 µM [inhibitor, single point]	
CCOC(=O)c1ccc(N2C(=O)c3n[nH]c(C)c3C2c2ccc(O)cc2)cc1 (centres undefined)		inactive: -4.63%
O=C(CSc1nnc(-c2ccccc2F)n1C1CC1)Nc1cccnc1Cl	inconclusive: 29.1 µM [inhibitor, single point]	

Exported field by field: two of the compounds above
COc1ccc(C2CC(c3c(O)cc(C)oc3=O)=NCCS2)c(OC)c1 (centres undefined)
  Potency: inconclusive: 13 µM [activator, partial curve]
Cn1nnc(NC(=S)NC(=O)c2ccccc2)n1
  Potency: inconclusive: 10.3 µM [activator, single point]

The listing continues:

SMILES	Potency	activity change, negative = inhibition
COc1ccccc1NC(=O)c1cc(C)oc1C		inactive: 0.783%
COc1ccc(S(=O)(=O)N(C)c2ccc(OCC(=O)Nc3cc(C)on3)cc2)cc1	inconclusive: 29.1 µM [inhibitor, single point]	
OCCNc1c2ccccc2nc2ccccc12	active: 20.6 µM	
Cc1ccc(NC(=O)CCC(=O)N/N=C/c2cccs2)cc1		inactive: 13%
COc1ccc(NC(=O)N2CCCCCC2)cc1	inconclusive: 20.6 µM [activator, partial curve]	
CCCC(=O)Nc1ccc(NC(=O)c2ccco2)c(OC)c1	inconclusive: 20.6 µM [activator, partial curve, poor fit]	
CC(C)(C)N1C(=O)c2ccc(C(=O)O)cc2C1=O		inactive: -6.89%
Cc1csc2c(NCCCN3CCOCC3)ncnc12	inconclusive: 29.1 µM [activator, single point]	
CN(C)c1ccc(C(=O)/C=C/c2ccco2)cc1	inconclusive: 6.51 µM [activator, partial curve]	
CCOc1ccccc1-n1nnnc1SCC(=O)NC(=O)Nc1ccc2c(c1)OCCO2	inconclusive: 25.9 µM [inhibitor, partial curve, poor fit]	
CCC1(c2ccccc2)NC(=O)N(CC(=O)NNC(=O)c2ccoc2C)C1=O (centres undefined)		inactive: -1.22%
COc1ccccc1NC(=O)CN1CC(=O)Nc2ccccc21		inactive: 1.83%
CCOc1ccc(Nc2nc(NCc3ccco3)nc(N)c2[N+](=O)[O-])cc1		inactive: 24.2%
CCC(=O)N1N=C(c2c(-c3ccccc3)c3cc(Cl)ccc3[nH]c2=O)CC1c1ccco1 (centres undefined)	inconclusive: 23.1 µM [inhibitor, single point]	
Cc1ccc(N=Nc2c(O)ccc3n[nH]nc23)cc1	inconclusive: 1.3 µM [activator, full curve]	
COc1ccc2[nH]c(=O)c(CN(Cc3cccnc3)C(=S)NCC3CCCO3)cc2c1 (centres undefined)	inconclusive: 20.6 µM [inhibitor, single point]	
CC(=O)Oc1ccc(C(=O)Nc2ccccc2C(=O)Nc2ccc(C(=O)O)cc2)cc1		inactive: 2.64%
CCOC(=O)Cc1csc(NC(=O)c2cc(C)c(C)s2)n1		inactive: 7.92%
COc1cc(NC(=O)c2cc(-c3ccccc3)on2)cc(OC)c1OC	inconclusive: 23.1 µM [inhibitor, single point]	
CCC1(CC)N=C(c2ccccc2)C(=S)N1		inactive: 7.93%
CC(C)CC(=O)/C=C/n1c(=S)oc2ccccc21	inconclusive: 29.1 µM [inhibitor, single point]	
NC(=O)C1CCN(c2nc(-c3cc4ccccc4o3)cs2)CC1	inconclusive: 16.4 µM [activator, partial curve]	
CCCCN1C(=O)N(c2ccccc2Cl)C(C)(O)CC1(C)C (centres undefined)		inactive: -18.1%
N#Cc1ccc(Sc2ccccn2)c([N+](=O)[O-])c1	inconclusive: 25.9 µM [activator, single point]	

3 of these compounds, reformatted:
SMILES | Potency | activity change, negative = inhibition
COc1ccccc1NC(=O)CN1CC(=O)Nc2ccccc21 |  | inactive: 1.83%
CCOc1ccc(Nc2nc(NCc3ccco3)nc(N)c2[N+](=O)[O-])cc1 |  | inactive: 24.2%
CCC(=O)N1N=C(c2c(-c3ccccc3)c3cc(Cl)ccc3[nH]c2=O)CC1c1ccco1 (centres undefined) | inconclusive: 23.1 µM [inhibitor, single point] | 
